# Reference: patent publication US20070026478A1, “Hemiasterlin affinity probes and their uses” (WYETH, priority 2002, published 2007)
# Test system: tubulin derived from bovine brain or HeLa cells
# Assay: Photoaffinity labeling of tubulin and peptide mapping of the labeling site
# Type: binding, bovine; human
# Conditions: for tubulin subunit photolabeled: bovine brain and HeLa cell tubulin, SDS-PAGE and fluorography; for photoaffinity labeling / binding site on α-tubulin (residues): combined chemical and enzymatic digests of photolabeled bovine brain tubulin
SMILES,tubulin subunit photolabeled,photoaffinity labeling / binding site on α-tubulin (residues),cross-linking efficiency (under optimal conditions)
"CN[C@H](C(=O)N[C@H](C(=O)N(C)[C@H](/C=C(\C)C(=O)O)C(C)C)C(C)(C)C)C(C)(C)c1ccc(C(=O)c2ccccc2)cc1 [Probe 1, 4-benzoyl-N,β,β-trimethyl-L-phenylalanyl-N^1-[(1S,2E)-3-carboxy-1-isopropylbut-2-enyl]-N^1,3-dimethyl-L-valinamide]",binds exclusively to α-tubulin,314-338,approximately 1.5%
"CN[C@H](C(=O)N[C@H](C(=O)N(C)[C@H](/C=C(\C)C(=O)O)C(C)C)C(C)(C)c1ccc(C(=O)c2ccccc2)cc1)C(C)(C)c1ccccc1 [Probe 2, N,β,β-trimethyl-L-phenylalanyl-4-benzoyl-N-[(1S,2E)-3-carboxy-1-isopropyl-2-butenyl]-N,β,β-trimethyl-L-phenylalaninamide]",exclusively labels α-tubulin,204-280,–
